This note sets out measurements from publication doi:10.1101/188383.

Amino acid sequences for entries named in this document (tags omitted). Residues count along the entry.
UniProt P24605, 17-137: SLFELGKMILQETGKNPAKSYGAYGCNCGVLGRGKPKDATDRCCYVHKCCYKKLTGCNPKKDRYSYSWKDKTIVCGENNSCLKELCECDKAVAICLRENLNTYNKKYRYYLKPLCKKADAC
UniProt P09405, whole entry: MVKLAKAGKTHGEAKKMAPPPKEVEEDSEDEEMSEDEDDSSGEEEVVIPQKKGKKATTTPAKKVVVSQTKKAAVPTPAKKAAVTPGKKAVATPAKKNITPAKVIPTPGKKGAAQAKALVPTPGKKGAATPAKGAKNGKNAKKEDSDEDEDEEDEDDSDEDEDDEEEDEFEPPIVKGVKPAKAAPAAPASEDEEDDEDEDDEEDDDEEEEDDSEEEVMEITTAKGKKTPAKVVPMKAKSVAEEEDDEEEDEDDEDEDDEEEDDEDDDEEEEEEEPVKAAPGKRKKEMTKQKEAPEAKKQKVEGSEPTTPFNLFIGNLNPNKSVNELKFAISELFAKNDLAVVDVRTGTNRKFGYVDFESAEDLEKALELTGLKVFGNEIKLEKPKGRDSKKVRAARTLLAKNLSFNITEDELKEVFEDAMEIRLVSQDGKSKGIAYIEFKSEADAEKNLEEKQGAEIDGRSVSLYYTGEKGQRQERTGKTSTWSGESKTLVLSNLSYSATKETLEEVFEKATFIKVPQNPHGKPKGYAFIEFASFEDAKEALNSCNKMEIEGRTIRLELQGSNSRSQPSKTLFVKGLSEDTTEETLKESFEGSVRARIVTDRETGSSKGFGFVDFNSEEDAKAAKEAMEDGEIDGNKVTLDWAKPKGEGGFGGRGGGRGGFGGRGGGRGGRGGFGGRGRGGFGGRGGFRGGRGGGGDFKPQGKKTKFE

The target in this experiment is Biotinylated Bothrops asper myotoxin II (Bothrops asper) (UniProt P24605). Description: pull-down.

These are yes or no findings as the source states them, for the method shown. Binding seen in cells or lysates may run through a third protein. Some binding calls cover weakened binding; strength is not graded here.

On to Nucleolin (from UniProt P09405 1-707), for which the binding result is “binds”.
